Results as given in the supplement of paper PMC10663445.
Values joined by “and” are separate entries in the source; they are usually repeats but may differ in a detail not shown here. Equal entries are not always repeated. Structures can show the parent of a compound that is named as a salt. The list shows a part of the results. Many values rest on one well or one pass, so single values are uncertain.

test system: hsa-miR-132-3p; assay: miR-132-3p level in NGN2-iNs after compound treatment (TMM-normalised, ComBat batch-corrected) (batch-corrected normalised expression (arbitrary units)); higher = higher miR-132-3p expression; details: 10 µM; 24 h; human iPSC-derived NGN2 neurons (BR43)

| SMILES | miR-132-3p level in NGN2-iNs |
| --- | --- |
| Nc1[nH]cnc2ncnc1-2 [Adenine HCl] | 0.264 |
| NCCc1c[nH]cn1 [Histamine 2HCl] | 0.156 |
| OC(Cn1cncn1)(Cn1cncn1)c1ccc(F)cc1F [Fluconazole] | 0.595 |
| COc1cc2ncnc(Sc3nnc(C)s3)c2cc1OC | -0.237 |
| COc1cc(Br)c(Nc2nc(-c3c(C)nc4ncccn34)cs2)c(Br)c1 | -0.243 and -0.188 |
| CC(=Cc1ccc(C(=O)O)cc1)c1ccc2c(c1)C(C)(C)CCC2(C)C [TTNPB (Arotinoid Acid)] | -0.299 |
| CC(C)c1c(C(=O)Nc2ccccc2)c(-c2ccccc2)c(-c2ccc(F)cc2)n1CC[C@@H](O)C[C@@H](O)CC(=O)O [Atorvastatin Calcium] | -0.442 |
| CCN[C@H]1CN(CCCOC)S(=O)(=O)c2sc(S(N)(=O)=O)cc21 [Brinzolamide] | -0.404 |
| CC(C)(C)c1cnc(CSc2cnc(NC(=O)C3CCNCC3)s2)o1 | -0.331 |
| COc1cc2c(Nc3ccc(NC(=O)c4ccccc4)cc3)ncnc2cc1OCCCN1CCOCC1 | 0.134 |
| CC(=O)Nc1ccc(C(=O)Nc2ccccc2N)cc1 [Tacedinaline (CI994)] | -0.425 |
| O=C(O)[C@]1(Cc2cccc(Nc3nccs3)n2)CC[C@@H](Oc2cccc(Cl)c2F)CC1 | 0.713 |
| C#Cc1cccc(Nc2ncnc3cc(OC)c(OCCCCCCC(=O)NO)cc23)c1 | -0.131 |
| CCCc1cc(C(N)=S)ccn1 [Protionamide] | 0.739 |
| CNC1CCCN(c2c(F)cc3c(=O)c(C(=O)O)cn(C4CC4)c3c2OC)C1 (configuration not stated) [Balofloxacin] | 0.0241 |
| C[C@H]1O[C@H](O[C@H]2[C@H](O)[C@@H](O)[C@@H](O[C@H]3[C@H](O)[C@@H](O)C(O)O[C@@H]3CO)O[C@@H]2CO)[C@H](O)[C@@H](O)[C@@H]1N[C@H]1C=C(CO)[C@@H](O)[C@H](O)[C@H]1O (some centres not stated) [Acarbose] | 0.331 |
| CO[C@H]1/C=C/O[C@@]2(C)Oc3c(C)c(O)c4c(O)c(c(/C=N/N5CCN(C6CCCC6)CC5)c(O)c4c3C2=O)NC(=O)/C(C)=C\C=C\[C@H](C)[C@H](O)[C@@H](C)[C@@H](O)[C@@H](C)[C@H](OC(C)=O)[C@@H]1C [Rifapentine] | 0.25 |
| N=C(N)NC(=N)NCCc1ccccc1 [Phenformin HCl] | -0.66 |
| CN1CCC(=C2c3ccccc3C=Cc3ccccc32)CC1 [Cyproheptadine HCl] | -1.21 |
| c1ccc(NCc2ccc(CNc3ccccn3)cc2)nc1 | -0.381 |
| O=C(NC[C@H]1CN(c2ccc(N3CCOCC3=O)cc2)C(=O)O1)c1ccc(Cl)s1 [Rivaroxaban] | 0.255 |
| Cc1cc2c(cc1CC(=O)c1sccc1S(=O)(=O)Nc1onc(C)c1Cl)OCO2 [Sitaxentan sodium] | -0.935 |
| C[C@@]1(C(=O)Nc2ccc(F)nc2)CCCN1c1nc(Nc2cc(C3CC3)n[nH]2)c2cccn2n1 | -0.0521 |
| N#Cc1ccc(C(c2ccc(C#N)cc2)n2cncn2)cc1 [Letrozole] | 2.01 |
| O=C(Nc1cccc(Cl)c1)c1ccccn1 | -0.725 |
| COc1c2occc2cc2ccc(=O)oc12 [Methoxsalen] | 0.78 |

Two records drawn at random from the list so far, as already listed:

| SMILES | miR-132-3p level in NGN2-iNs |
| --- | --- |
| OC(Cn1cncn1)(Cn1cncn1)c1ccc(F)cc1F [Fluconazole] | 0.595 |
| CC(=Cc1ccc(C(=O)O)cc1)c1ccc2c(c1)C(C)(C)CCC2(C)C [TTNPB (Arotinoid Acid)] | -0.299 |

Additional results:

| SMILES | miR-132-3p level in NGN2-iNs |
| --- | --- |
| NC(=O)c1ccc(N(C(N)=O)c2c(F)cccc2F)nc1-c1ccc(F)cc1F | -0.999 |
| CC(=O)Oc1ccccc1C(=O)Nc1ncc([N+](=O)[O-])s1 [Nitazoxanide] | 2.66 |
| Nc1c(CC(=O)O)cccc1C(=O)c1ccccc1 [Amfenac Sodium Monohydrate] | 2.1 |
| COc1ccc([C@@H]2CC(=O)c3c(O)cc(O)cc3O2)cc1O [Hesperetin] | 1.06 |
| COc1ccc(-c2ccc3c(N4CCOC[C@@H]4C)nc(N4CCOC[C@@H]4C)nc3n2)cc1CO | -1.06 |
| CC(C)C[C@H](NP(=O)(O)O[C@@H]1O[C@@H](C)[C@H](O)[C@@H](O)[C@H]1O)C(=O)N[C@@H](Cc1c[nH]c2ccccc12)C(=O)O [Phosphoramidon Disodium Salt] | -0.132 |
| O=S(=O)(O)NC1CCCCC1 [Cyclamic  acid] | -0.919 |
| COc1ccc([C@]2(C#N)CC[C@@H](C(=O)O)CC2)cc1OC1CCCC1 [Cilomilast] | 1.03 |
| O=c1[nH]c(=O)n(C2CCCO2)cc1F (configuration not stated) | 1.37 |
| CCOC(=O)Nc1cc(-c2ccc(C)c(NS(C)(=O)=O)c2)nn2c(C)nnc12 [Bromosporine] | 0.111 |
| C[C@@H]1CCN(C(=O)CC#N)C[C@@H]1N(C)c1ncnc2[nH]ccc12 | -0.463 |
| Nc1cc(C(Cl)=C(Cl)Cl)c(S(N)(=O)=O)cc1S(N)(=O)=O [Clorsulon] | 1.77 |
| Cc1ccccc1CN1C2=NCCN2C(=O)C2=C1CCN(Cc1ccccc1)C2 [TIC10 Analogue] | -0.518 |
| COc1ccc([C@@H]2CC(=O)c3c(O)cc(O[C@@H]4O[C@H](CO)[C@@H](O)[C@H](O)[C@H]4O[C@@H]4O[C@@H](C)[C@H](O)[C@@H](O)[C@H]4O)cc3O2)cc1O [Neohesperidin] | -0.439 |
| CC(=O)OCC(CCn1cnc2cnc(N)nc21)COC(C)=O [Famciclovir] | 1.44 |
| C=CC(=O)Nc1cccc(Oc2nc(Nc3ccc(N4CCN(C)CC4)cc3OC)ncc2Cl)c1 | 0.398 |
| CC(/C=C1\SC(=S)N(CC(=O)O)C1=O)=C\c1ccccc1 [Epalrestat] | -0.23 |
| COC(=O)CCSCc1ccc(-c2onc(C)c2NC(=O)OC(C)c2ccccc2Cl)cc1 (configuration not stated) | -1.56 |
| Cc1nc(=O)c2cc(CN(C)c3ccc(C(=O)N[C@@H](CCC(=O)O)C(=O)O)s3)ccc2[nH]1 [Raltitrexed] | 0.423 |
| O=c1oc2ccccc2c(O)c1Cc1c(O)c2ccccc2oc1=O [Dicoumarol] | 1.92 |
| CS(=O)(=O)N1CCc2c(-c3cnc(N)nc3)nc(N3CCOCC3)nc21 | 0.352 |
| COc1ccc(C2CNC(=O)C2)cc1OC1CCCC1 (configuration not stated) [Rolipram] | 1.33 |
| COc1ccc(C2CNC(=O)C2)cc1OC1CCCC1 (stereo not drawn) [S- (+)-Rolipram] | 0.326 |
| CC(=O)Nc1nc(C)c(-c2ccc(Cl)c(S(=O)(=O)NCCO)c2)s1 | 0.636 |
| O=C1C[C@@H](c2ccc(O)cc2)Oc2cc(O)cc(O)c21 [Naringenin] | 0.719 |
| CCC(=O)O[C@]1(C(=O)CCl)[C@@H](C)C[C@H]2[C@@H]3CCC4=CC(=O)C=C[C@]4(C)[C@@]3(F)[C@@H](O)C[C@@]21C [Clobetasol propionate] | -0.326 |

Some of the entries so far, bar-delimited.
SMILES | miR-132-3p level in NGN2-iNs
C=CC(=O)Nc1cccc(Oc2nc(Nc3ccc(N4CCN(C)CC4)cc3OC)ncc2Cl)c1 | 0.398
COc1ccc(C2CNC(=O)C2)cc1OC1CCCC1 (stereo not drawn) [S- (+)-Rolipram] | 0.326
